From the supplement of paper PMC12823440, “Inhibitors supercharge kinase turnover through native proteolytic circuits” (Nature, 2025)
Where a name gives a salt, the structure may show the parent alone. Some of the results follow. The calls rarely recur for the same compound in another form.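 In K562 cells expressing nanoluciferase-fused kinases, luminescence was recorded at 4 h intervals between 2 and 18 h, normalized as percent of control with DMSO at 100% and a positive control at 0%. A significant (2 sigma) signal drop marks a time point as decreased. The authors' rule for a hit is not shown and takes in more than the number of time points.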

Protein sequences, listed by entry. Tags and fused reporters are not part of them. Lines headed by an entry give the natural chain unless they say otherwise; changes in a name come on top.
UniProt Q05397, whole entry, looked up: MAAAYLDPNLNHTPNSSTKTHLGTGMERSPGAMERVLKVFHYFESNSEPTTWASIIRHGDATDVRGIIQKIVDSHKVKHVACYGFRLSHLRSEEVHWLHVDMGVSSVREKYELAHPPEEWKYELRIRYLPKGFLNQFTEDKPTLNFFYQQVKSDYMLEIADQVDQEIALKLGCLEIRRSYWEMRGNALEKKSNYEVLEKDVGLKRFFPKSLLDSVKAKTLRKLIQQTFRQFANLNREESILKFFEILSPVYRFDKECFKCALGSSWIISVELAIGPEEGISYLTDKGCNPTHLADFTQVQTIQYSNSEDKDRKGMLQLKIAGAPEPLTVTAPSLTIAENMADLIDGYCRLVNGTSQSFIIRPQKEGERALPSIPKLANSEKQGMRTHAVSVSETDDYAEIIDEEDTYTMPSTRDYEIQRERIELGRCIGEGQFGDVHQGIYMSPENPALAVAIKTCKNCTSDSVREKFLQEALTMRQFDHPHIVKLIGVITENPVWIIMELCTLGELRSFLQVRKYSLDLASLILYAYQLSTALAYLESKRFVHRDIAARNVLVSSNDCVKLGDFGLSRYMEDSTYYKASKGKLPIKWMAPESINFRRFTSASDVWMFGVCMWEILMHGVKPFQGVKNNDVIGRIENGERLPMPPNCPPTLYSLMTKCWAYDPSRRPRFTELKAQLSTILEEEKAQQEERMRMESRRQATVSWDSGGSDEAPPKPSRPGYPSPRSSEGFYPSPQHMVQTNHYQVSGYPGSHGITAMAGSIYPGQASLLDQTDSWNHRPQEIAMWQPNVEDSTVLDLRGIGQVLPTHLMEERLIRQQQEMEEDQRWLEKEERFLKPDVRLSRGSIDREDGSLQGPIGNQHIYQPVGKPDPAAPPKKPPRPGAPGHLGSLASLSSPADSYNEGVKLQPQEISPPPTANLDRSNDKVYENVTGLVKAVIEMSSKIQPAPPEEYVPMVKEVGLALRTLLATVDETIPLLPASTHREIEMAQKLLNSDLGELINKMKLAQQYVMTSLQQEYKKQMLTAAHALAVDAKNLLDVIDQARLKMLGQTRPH
UniProt Q14289, whole entry, looked up: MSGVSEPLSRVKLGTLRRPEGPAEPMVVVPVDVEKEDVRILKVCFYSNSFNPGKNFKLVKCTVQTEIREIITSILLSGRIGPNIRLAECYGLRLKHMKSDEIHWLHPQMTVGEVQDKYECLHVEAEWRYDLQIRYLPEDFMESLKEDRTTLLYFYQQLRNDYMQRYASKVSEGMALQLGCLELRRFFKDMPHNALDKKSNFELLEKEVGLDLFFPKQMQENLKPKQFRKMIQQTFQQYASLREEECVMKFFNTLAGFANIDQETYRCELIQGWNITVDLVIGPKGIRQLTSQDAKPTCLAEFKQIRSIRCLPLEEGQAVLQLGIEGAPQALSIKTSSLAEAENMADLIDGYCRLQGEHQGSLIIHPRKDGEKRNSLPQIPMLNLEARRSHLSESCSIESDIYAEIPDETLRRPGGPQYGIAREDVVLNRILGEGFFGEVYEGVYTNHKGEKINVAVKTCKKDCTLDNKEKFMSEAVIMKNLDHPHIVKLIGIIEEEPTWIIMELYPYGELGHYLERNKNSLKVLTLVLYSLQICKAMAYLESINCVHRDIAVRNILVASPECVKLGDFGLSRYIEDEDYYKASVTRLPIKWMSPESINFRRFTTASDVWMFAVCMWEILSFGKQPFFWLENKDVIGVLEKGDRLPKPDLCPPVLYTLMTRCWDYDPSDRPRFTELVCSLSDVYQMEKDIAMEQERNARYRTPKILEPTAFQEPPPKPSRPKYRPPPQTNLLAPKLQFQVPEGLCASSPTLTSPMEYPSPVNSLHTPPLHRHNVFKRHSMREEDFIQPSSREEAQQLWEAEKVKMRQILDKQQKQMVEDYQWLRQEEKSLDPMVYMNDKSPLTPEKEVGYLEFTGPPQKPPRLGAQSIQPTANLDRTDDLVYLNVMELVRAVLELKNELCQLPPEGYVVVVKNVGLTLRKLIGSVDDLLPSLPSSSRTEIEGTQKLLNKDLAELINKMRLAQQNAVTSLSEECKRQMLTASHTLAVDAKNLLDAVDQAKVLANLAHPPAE
UniProt P07949, whole entry, looked up: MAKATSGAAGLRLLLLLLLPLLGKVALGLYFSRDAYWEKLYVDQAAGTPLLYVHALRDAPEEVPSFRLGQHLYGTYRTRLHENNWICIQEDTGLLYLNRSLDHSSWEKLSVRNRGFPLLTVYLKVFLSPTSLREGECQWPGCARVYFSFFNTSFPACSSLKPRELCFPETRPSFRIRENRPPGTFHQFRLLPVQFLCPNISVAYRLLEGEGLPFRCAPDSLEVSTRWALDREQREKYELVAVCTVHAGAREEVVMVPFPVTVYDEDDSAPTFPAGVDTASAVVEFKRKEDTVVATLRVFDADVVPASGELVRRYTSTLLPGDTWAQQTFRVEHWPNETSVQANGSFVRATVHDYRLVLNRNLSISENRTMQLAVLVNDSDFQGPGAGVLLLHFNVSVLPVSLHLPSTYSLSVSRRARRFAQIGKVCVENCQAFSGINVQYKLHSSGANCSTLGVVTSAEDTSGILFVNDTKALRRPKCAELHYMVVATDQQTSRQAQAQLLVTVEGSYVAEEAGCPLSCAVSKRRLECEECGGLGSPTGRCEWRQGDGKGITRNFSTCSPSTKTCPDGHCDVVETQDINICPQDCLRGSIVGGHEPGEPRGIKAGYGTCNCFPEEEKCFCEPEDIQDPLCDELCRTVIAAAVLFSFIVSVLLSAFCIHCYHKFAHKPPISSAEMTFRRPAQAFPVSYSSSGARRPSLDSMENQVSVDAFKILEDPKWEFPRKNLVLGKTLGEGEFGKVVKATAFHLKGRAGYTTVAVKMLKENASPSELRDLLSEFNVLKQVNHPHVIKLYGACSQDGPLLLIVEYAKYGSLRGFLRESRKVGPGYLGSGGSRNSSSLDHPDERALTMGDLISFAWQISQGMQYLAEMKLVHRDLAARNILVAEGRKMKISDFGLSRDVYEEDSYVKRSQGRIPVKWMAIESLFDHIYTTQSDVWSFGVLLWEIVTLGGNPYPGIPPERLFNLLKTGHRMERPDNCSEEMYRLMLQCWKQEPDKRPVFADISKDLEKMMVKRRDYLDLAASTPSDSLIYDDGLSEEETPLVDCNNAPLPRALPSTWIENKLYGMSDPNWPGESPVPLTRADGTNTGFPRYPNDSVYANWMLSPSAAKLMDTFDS
UniProt P07949, whole entry M918T, looked up: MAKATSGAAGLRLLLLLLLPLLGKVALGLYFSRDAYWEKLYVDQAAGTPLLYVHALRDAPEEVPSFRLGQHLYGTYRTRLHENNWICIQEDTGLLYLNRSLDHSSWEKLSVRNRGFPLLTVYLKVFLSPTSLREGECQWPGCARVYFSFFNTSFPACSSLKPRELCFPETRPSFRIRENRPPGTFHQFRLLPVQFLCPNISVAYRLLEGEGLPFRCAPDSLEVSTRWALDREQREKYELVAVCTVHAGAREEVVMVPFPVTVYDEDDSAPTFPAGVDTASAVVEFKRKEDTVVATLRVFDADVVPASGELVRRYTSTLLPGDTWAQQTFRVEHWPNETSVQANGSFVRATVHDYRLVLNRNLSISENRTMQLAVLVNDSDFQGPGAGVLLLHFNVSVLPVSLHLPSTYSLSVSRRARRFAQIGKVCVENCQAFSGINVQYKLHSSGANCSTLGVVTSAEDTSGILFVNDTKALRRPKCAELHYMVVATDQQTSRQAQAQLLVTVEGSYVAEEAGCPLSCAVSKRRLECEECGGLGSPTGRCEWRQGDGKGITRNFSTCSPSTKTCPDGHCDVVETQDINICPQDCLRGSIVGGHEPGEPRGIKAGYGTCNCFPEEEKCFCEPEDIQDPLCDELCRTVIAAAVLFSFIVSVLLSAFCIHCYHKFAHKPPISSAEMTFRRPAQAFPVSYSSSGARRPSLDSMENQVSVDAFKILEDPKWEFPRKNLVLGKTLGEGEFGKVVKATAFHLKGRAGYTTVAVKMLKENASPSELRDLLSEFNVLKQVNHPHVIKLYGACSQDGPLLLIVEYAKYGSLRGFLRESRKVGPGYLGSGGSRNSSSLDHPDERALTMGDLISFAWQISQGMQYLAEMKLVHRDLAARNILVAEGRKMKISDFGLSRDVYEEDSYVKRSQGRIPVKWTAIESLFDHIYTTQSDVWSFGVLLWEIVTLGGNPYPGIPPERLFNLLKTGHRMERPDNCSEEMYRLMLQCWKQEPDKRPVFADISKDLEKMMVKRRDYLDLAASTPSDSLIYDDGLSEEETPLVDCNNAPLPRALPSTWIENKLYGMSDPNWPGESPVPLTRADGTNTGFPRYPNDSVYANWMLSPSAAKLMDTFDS
UniProt Q9BRS2: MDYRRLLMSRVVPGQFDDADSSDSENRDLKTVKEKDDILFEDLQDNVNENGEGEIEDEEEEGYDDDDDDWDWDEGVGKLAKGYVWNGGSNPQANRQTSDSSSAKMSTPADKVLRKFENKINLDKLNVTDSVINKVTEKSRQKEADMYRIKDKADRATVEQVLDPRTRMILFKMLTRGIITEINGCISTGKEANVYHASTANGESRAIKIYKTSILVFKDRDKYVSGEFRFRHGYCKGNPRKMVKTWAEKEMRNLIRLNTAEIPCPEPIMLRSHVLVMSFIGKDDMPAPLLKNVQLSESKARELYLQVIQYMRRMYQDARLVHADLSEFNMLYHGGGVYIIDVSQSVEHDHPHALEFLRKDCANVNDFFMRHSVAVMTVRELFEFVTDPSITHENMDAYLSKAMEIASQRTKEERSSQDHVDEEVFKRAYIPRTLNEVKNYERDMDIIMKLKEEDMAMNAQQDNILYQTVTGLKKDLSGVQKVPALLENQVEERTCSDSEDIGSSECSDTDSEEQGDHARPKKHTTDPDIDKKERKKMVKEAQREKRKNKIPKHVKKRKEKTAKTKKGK
UniProt Q13546: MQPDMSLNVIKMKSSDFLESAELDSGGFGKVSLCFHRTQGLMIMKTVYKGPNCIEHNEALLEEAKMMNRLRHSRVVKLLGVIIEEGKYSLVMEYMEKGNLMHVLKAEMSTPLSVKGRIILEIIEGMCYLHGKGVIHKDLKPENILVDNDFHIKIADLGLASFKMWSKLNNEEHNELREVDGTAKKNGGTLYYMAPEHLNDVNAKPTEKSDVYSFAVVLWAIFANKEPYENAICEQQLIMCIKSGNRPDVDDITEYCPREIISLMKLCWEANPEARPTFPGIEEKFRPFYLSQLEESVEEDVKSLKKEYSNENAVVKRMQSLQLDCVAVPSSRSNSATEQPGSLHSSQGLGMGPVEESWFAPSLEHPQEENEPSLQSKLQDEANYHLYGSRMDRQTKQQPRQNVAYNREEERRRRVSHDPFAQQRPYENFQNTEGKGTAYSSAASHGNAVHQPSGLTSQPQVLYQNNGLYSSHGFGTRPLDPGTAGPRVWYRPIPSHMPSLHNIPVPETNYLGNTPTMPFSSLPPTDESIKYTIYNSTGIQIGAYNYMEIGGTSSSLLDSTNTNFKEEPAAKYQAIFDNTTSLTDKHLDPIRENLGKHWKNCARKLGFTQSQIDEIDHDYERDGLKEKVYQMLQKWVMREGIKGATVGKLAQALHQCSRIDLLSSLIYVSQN

Legend:
Experiment in all cases: number of time points (of 5) at which kinase-Nluc abundance scored as decreased, DMSO-normalised (count); higher = more persistent destabilization
Settings in all cases: K562; 2-18 h
PRKCA = PRKCA (UniProt P17252)
PTK2 = PTK2 (UniProt Q05397)
PTK2B = PTK2B (UniProt Q14289)
RAF1 = RAF1 (UniProt P04049)
[1] = target: RAF1_S257L (clone: RAF1_mut) (UniProt P04049)
RET = RET (UniProt P07949)
[2] = target: RET_M918T (clone: RET_mut) (UniProt P07949)
RIOK1 = RIOK1 (UniProt Q9BRS2)
RIPK1 = RIPK1 (UniProt Q13546)
RIPK2 = RIPK2 (UniProt O43353)

Measured: number of time points

Fc1c(Br)cccc1Nc1ncnc2cc3c(cc12)OCCO3 (2.5 µM)
1: PTK2 | RIOK1
2: RAF1
0: all other assays above

COc1cc2ncnc(Nc3ccc(NC(=O)c4ccccc4)cc3)c2cc1OC [Aurora kinase inhibitor-2] (2.5 µM)
0: all assays above

O=c1ccc2ccc(O)c(O)c2o1 [Daphnetin] (10 µM)
0: all assays above

CCOC(=O)c1c2c3c(cccc3[nH]c1=O)C(=O)c1ccccc1-2 (10 µM)
0: all assays above

CC1=C(C(=O)Nc2ccc3[nH]ncc3c2)C(c2ccc(F)cc2)NC(=O)N1 (stereo not given) (10 µM)
0: all assays above

CCOc1nc(Nc2ccc(C(=O)N3CCOCC3)cc2OC)nc2[nH]ccc12 [LRRK2 inhibitor 1] (2.5 µM)
0: all assays above

CC[C@@H](N)CNc1ccnc(-c2cc(-c3cnn(C)c3)ccc2O)n1 (2.5 µM)
2: RIPK1
3: [1]
0: all other assays above

Cc1cc2cc(Oc3ccnc(Nc4cccc(CS(=O)(=O)NCCN(C)C)c4)n3)ccc2[nH]1 [Sulfatinib] (10 µM)
4: [1]
1: PTK2 | RIOK1
3: RIPK2
2: RIPK1
0: all other assays above

Nc1nc2cc(-c3ccc4ncc(C(=O)N5CCOCC5)n4c3)ccc2o1 [Serabelisib] (10 µM)
0: all assays above

N#Cc1ccc(-c2c(-c3ncn[nH]3)sc(N3CCOCC3)c2C#N)c(F)c1 (10 µM)
1: RAF1
3: [1]
0: all other assays above

Cn1ncc(Cl)c1-c1cc(C(=O)N[C@H](CN)Cc2ccc(F)c(F)c2)sc1Cl (10 µM)
3: PTK2 | RIPK1
4: [1]
2: RAF1
1: RIPK2
0: all other assays above

CCCCOc1ccc(CC/C=C2\SC(=O)N(CCN)C2=O)cc1 [K145 (hydrochloride)] (2.5 µM)
0: all assays above

C=C[C@H]1[C@H](O[C@@H]2O[C@H](CO)[C@@H](O)[C@H](O)[C@H]2OC(=O)c2c(O)cc(O)cc2-c2cccc(O)c2)OC=C2C(=O)OCC[C@H]21 [Amarogentin] (10 µM)
0: all assays above

COc1cc(N2CCC(N3CCN(C)CC3)CC2)ccc1Nc1nc2c(c(Nc3ccccc3S(=O)(=O)NC(C)C)n1)CCN2 [Conteltinib] (10 µM)
0: all assays above

COc1ncc(Nc2ncc([C@@H](C)N3CCN(S(C)(=O)=O)CC3)cc2-c2nc(C)nc(N)n2)cc1F (10 µM)
0: all assays above

Quoted from above, three compounds:
Fc1c(Br)cccc1Nc1ncnc2cc3c(cc12)OCCO3 (2.5 µM)
1: PTK2 | RIOK1
2: RAF1
0: all other assays above

COc1cc2ncnc(Nc3ccc(NC(=O)c4ccccc4)cc3)c2cc1OC [Aurora kinase inhibitor-2] (2.5 µM)
0: all assays above

O=c1ccc2ccc(O)c(O)c2o1 [Daphnetin] (10 µM)
0: all assays above

Continued.

COc1nc(-c2ccnc(NC(=O)C3CC3)c2)sc1C(N)=O [GSK-3β inhibitor 2] (10 µM)
2: PTK2
0: all other assays above

C=CC(=O)N1CCC(Oc2cc3c(Nc4ccc(Cl)c(Cl)c4F)ncnc3cc2OC)CC1 [Poziotinib] (2.5 µM)
0: all assays above

COc1cc(-c2cc(-c3cc(OC)c(OC)c(OC)c3)cc(C(F)P(=O)(OCOC(=O)C(C)(C)C)OCOC(=O)C(C)(C)C)c2)cc(OC)c1OC (stereo not given) [Stafia-1-dipivaloyloxymethyl ester] (2.5 µM)
0: all assays above

CC1(COc2ccc3c(c2)ncn3-c2ccc3cccc(N4CCC(N)CC4)c3n2)COC1 [Crenolanib] (2.5 µM)
1: RIOK1
3: [1]
0: all other assays above

COc1ccc2c(c1)c(C1=C(c3c[nH]c4ccccc34)C(=O)NC1=O)cn2CCCN(C)C (10 µM)
0: all assays above

CC(C)c1cc(/C=C(\C#N)C(N)=O)cc(C(C)C)c1O (10 µM)
0: all assays above

COc1cnccc1Nc1nc(-c2nn(Cc3c(F)cc(OCCO)cc3F)c3ccccc23)ncc1OC (10 µM)
0: all assays above

O=C(O)c1ccccc1Nc1cccc(C(F)(F)F)c1 [Flufenamic acid] (10 µM)
0: all assays above

Nc1cccc(S(=O)(=O)N2CCCN(S(=O)(=O)c3ccc4c(c3)OCCO4)CC2)c1 (10 µM)
0: all assays above

C[C@@H]1O[C@@H](OC[C@H]2O[C@@H](Oc3cc(O)c4c(c3)O[C@H](c3ccc(O)cc3)CC4=O)[C@H](O)[C@@H](O)[C@@H]2O)[C@H](O)[C@H](O)[C@H]1O [Narirutin] (10 µM)
0: all assays above

CC1(N)CCN(c2cnc3c(-c4cccc(Cl)c4Cl)[nH]nc3n2)CC1 (2.5 µM)
0: all assays above

CN(CC(=O)N(Cc1ccc(C2CCCCC2)cc1)c1ccc(C(=O)O)c(O)c1)S(=O)(=O)c1c(F)c(F)c(F)c(F)c1F (2.5 µM)
0: all assays above

O=C1NC(=O)C(=Cc2ccc3c(c2)OCO3)S1 (10 µM)
0: all assays above

COc1ccc2c(Oc3ccc(NC(=O)c4c(C)n(CC(C)(C)O)n(-c5ccccc5)c4=O)cc3F)ccnc2c1 (2.5 µM)
1: RAF1 | RIPK1 | RIPK2
3: [1]
0: all other assays above

c1ccc(-c2oc3ncnc(NC[C@@H]4CCCO4)c3c2-c2ccccc2)cc1 (2.5 µM)
0: all assays above

CC(C)(C)c1cc(C(c2cc3c(cc2O)OCO3)N2CCOCC2)cc(C(C)(C)C)c1O (stereo not given) (2.5 µM)
0: all assays above

O=C1NC(=O)C(c2cn(-c3ccccc3)nc2-c2ccc(F)cc2)N1 (stereo not given) (10 µM)
0: all assays above

C[C@H]1Cc2ccccc2N1C(=O)Cc1nc(N2CCOCC2)cc(=O)[nH]1 (2.5 µM)
0: all assays above

CCn1nc(C2CCN(C(=O)CCO)CC2)nc1-c1cnc(N)c(-c2nnc(C(C)(C)C)o2)n1 (10 µM)
0: all assays above
